# According to PubChem BioAssay AID250 (DTP/NCI, 2004):
# The list shows only some results of the screen, not a fair sample: it gathers tests that were run many times, whatever their T/C, doses with no T/C, and many T/C values between a quarter and a half above the control. Further doses and runs are listed elsewhere. T/C gives the treated animals as a percentage of the vehicle group. Some entries give survivors of the animals treated and no T/C: the source holds a T/C of zero for them, seemingly a mark for toxic or unscored doses. Some survivor counts are full or nearly so, which does not show that the dose was tolerated: survival well below the control is almost never listed, so the zero probably covers shortened survival too. For part of these data: Survivors were counted at the toxicity check, usually on the fifth day, unless a day is given; later deaths do not show. Schedule codes are those of the source, taken here to give the interval after Q, in days (D) or hours (H), and the number of doses after X. Some schedules carry Z or #; the key to these is not given. Some structures stand for samples that the source files as different forms (salt, stereo form or complex); doses refer to the form tested. Some entries hold several experiments; their values stand side by side, smallest first. For survival time, the PubChem record calls one and a half times the control and up active, and a quarter to a half above the control has no call in these data; cut-offs in other NCI protocols can differ. Some T/C values carry the count of animals alive at the toxicity check (mostly the fifth day); where none is given, no animal had died by that day.
# Legend:
# [1] = test system: BDF1 mice, L1210 leukemia sc, survival T/C; assay: NCI In Vivo Anticancer Drug Screen. Data for tumor model L1210 Leukemia (subcutaneous) in B6D2F1 (BDF1) mice; details: T/C endpoint: median survival time, higher T/C = longer survival
# In short: (§1)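 Tumors were transplanted into mice, the animals were treated with compound, survival or tumor size was then measured, and treated values were divided by vehicle-control values.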
# [2] = test system: BDF1 mice, L1210 leukemia sc; assay: as above; details: T/C endpoint: median survival time, higher T/C = longer survival
# In short: as §1
# [3] = dose: 8.4 mg/kg/injection, schedule: Q01DX001 (sc), vehicle: saline, run until all animals had died
structure (smiles),measurement,setting,value
O=NN(CCCl)C(=O)NCCCl,T/C,"[1]; dose: 3.0 mg/kg/injection, schedule: Q01DX Z (sc), vehicle: saline, evaluated on day 71",234 % of control
same,T/C,"[1]; dose: 3.0 mg/kg/injection, schedule: Q01DX Z (sc), vehicle: saline, evaluated on day 79",331 % of control
same,T/C,"[1]; dose: 3.0 mg/kg/injection, schedule: Q01DX Z (sc), vehicle: saline, run until all animals had died",240 and 284 % of control
same,T/C,"[1]; dose: 5.0 mg/kg/injection, schedule: Q01DX Z (sc), vehicle: saline, evaluated on day 71",226 % of control
same,T/C,"[1]; dose: 5.0 mg/kg/injection, schedule: Q01DX Z (sc), vehicle: saline, evaluated on day 79",578 % of control
same,T/C,"[1]; dose: 5.0 mg/kg/injection, schedule: Q01DX Z (sc), vehicle: saline, run until all animals had died",368 and 640 % of control
same,survivor count,"[1]; dose: 5.0 mg/kg/injection, schedule: Q01HX002 (ip), vehicle: saline",8 of 8
same,T/C,"[1]; dose: 8.4 mg/kg/injection, schedule: Q01DX001 (sc), vehicle: saline, evaluated on day 79",168 % of control
same,T/C,"[1]; dose: 8.4 mg/kg/injection, schedule: Q01DX001 (sc), vehicle: saline, evaluated on day 99",170 % of control
same,T/C,[1]; [3],150 and 300 % of control
same,T/C,"[1]; dose: 8.4 mg/kg/injection, schedule: Q01DX Z (sc), vehicle: saline, evaluated on day 71",165 % of control
same,T/C,"[1]; dose: 8.4 mg/kg/injection, schedule: Q01DX Z (sc), vehicle: saline, evaluated on day 79",273 % of control
same,T/C,"[1]; dose: 8.4 mg/kg/injection, schedule: Q01DX Z (sc), vehicle: saline, run until all animals had died",294 and 455 % of control
same,T/C,"[1]; dose: 14.0 mg/kg/injection, schedule: Q01DX001 (sc), vehicle: saline, evaluated on day 79",257 % of control
same,T/C,"[1]; dose: 14.0 mg/kg/injection, schedule: Q01DX001 (sc), vehicle: saline, evaluated on day 99",260 % of control
same,T/C,"[1]; dose: 14.0 mg/kg/injection, schedule: Q01DX001 (sc), vehicle: saline, run until all animals had died","175, 177, 309, 363 % of control"
same,T/C,"[1]; dose: 23.0 mg/kg/injection, schedule: Q01DX001 (sc), vehicle: saline, evaluated on day 79",378 % of control
same,T/C,"[1]; dose: 23.0 mg/kg/injection, schedule: Q01DX001 (sc), vehicle: saline, evaluated on day 99",370 % of control
same,T/C,"[1]; dose: 23.0 mg/kg/injection, schedule: Q01DX001 (sc), vehicle: saline, run until all animals had died","250, 268, 371, 900 % of control"
same,T/C,"[1]; dose: 39.0 mg/kg/injection, schedule: Q01DX001 (sc), vehicle: saline, evaluated on day 79",631 % of control
same,T/C,"[1]; dose: 39.0 mg/kg/injection, schedule: Q01DX001 (sc), vehicle: saline, evaluated on day 99",545 % of control
same,T/C,"[1]; dose: 39.0 mg/kg/injection, schedule: Q01DX001 (sc), vehicle: saline, run until all animals had died","225, 268, 857, 900 % of control"
same,survivor count,"[1]; dose: 39.0 mg/kg/injection, schedule: Q01HX002 (ip), vehicle: saline",8 of 8
same,survivor count,"[1]; dose: 48.0 mg/kg/injection, schedule: Q01DX009 (ip), vehicle: saline",8 of 8
same,T/C,"[1]; dose: 65.0 mg/kg/injection, schedule: Q01DX001 (sc), vehicle: saline, evaluated on day 79",347 % of control
same,T/C,"[1]; dose: 65.0 mg/kg/injection, schedule: Q01DX001 (sc), vehicle: saline, run until all animals had died",104 and 409 % of control
same,survivor count,"[1]; dose: 65.0 mg/kg/injection, schedule: Q01HX002 (ip), vehicle: saline",8 of 8
same,T/C,"[2]; dose: 1.08 mg/kg/injection, schedule: Q01DX Z (sc), vehicle: methylcellulose (MC)",138 % of control
same,T/C,"[2]; dose: 1.8 mg/kg/injection, schedule: Q01DX Z (sc), vehicle: saline",147 % of control
same,T/C,"[2]; dose: 5.0 mg/kg/injection, schedule: Q01DX001 (ip), vehicle: saline",142 % of control
same,T/C,"[2]; dose: 5.0 mg/kg/injection, schedule: Q01DX001 (iv), vehicle: saline",147 % of control
same,T/C,"[2]; dose: 5.0 mg/kg/injection, schedule: Q07DX Z (sc), vehicle: methylcellulose (MC)",138 % of control
same,T/C,"[2]; dose: 5.0 mg/kg/injection, schedule: Q07DX Z (sc), vehicle: saline",131 % of control
same,T/C,"[2]; dose: 5.0 mg/kg/injection, schedule: Q## X Z (sc), vehicle: saline",146 % of control
same,T/C,"[2]; dose: 6.5 mg/kg/injection, schedule: Q07DX003 (sc), vehicle: saline, evaluated on day 9",135 % of control
same,T/C,"[2]; dose: 6.5 mg/kg/injection, schedule: Q07DX003 (sc), vehicle: saline, evaluated on day 66",135 % of control
same,T/C,[2]; [3],130 and 145 % of control
same,T/C,"[2]; dose: 8.4 mg/kg/injection, schedule: Q01HX002 (ip), vehicle: saline",144 % of control [7 of 8 alive]
same,T/C,"[2]; dose: 12.0 mg/kg/injection, schedule: Q01DX009 (ip), vehicle: saline",140 % of control
same,T/C,"[2]; dose: 65.0 mg/kg/injection, schedule: Q01DX001 (sc), vehicle: saline, evaluated on day 99",135 % of control
O=C(Nc1ccc(C2=NCCN2)cc1)c1ccc(C(=O)Nc2ccc(C3=NCCN3)cc2)c(Cl)c1,survivor count,"[1]; dose: 5.0 mg/kg/injection, schedule: Q01DX Z (sc), vehicle: saline",4 of 10 and 6 of 10
same,survivor count,"[1]; dose: 39.0 mg/kg/injection, schedule: Q01DX Z (ip), vehicle: water",6 of 10
same,survivor count,"[1]; dose: 65.0 mg/kg/injection, schedule: Q01DX Z (ip), vehicle: water",6 of 10
same,survivor count,"[1]; dose: 108.0 mg/kg/injection, schedule: Q01DX Z (ip), vehicle: water",3 of 10
same,survivor count,"[1]; dose: 216.0 mg/kg/injection, schedule: Q01DX001 (ip), vehicle: water",3 of 8
same,survivor count,"[1]; dose: 320.0 mg/kg/injection, schedule: Q01DX001 (sc), vehicle: methylcellulose (MC)",3 of 10
same,survivor count,"[1]; dose: 640.0 mg/kg/injection, schedule: Q01DX001 (sc), vehicle: methylcellulose (MC)",2 of 10
same,survivor count,"[1]; dose: 640.0 mg/kg/injection, schedule: Q01DX001 (sc), vehicle: water",2 of 10
same,survivor count,"[1]; dose: 1000.0 mg/kg/injection, schedule: Q01DX001 (sc), vehicle: water",3 of 8
same,T/C,"[2]; dose: 8.4 mg/kg/injection, schedule: Q01DX Z (sc), vehicle: water",130 % of control
same,T/C,"[2]; dose: 17.0 mg/kg/injection, schedule: Q01DX Z (ip), vehicle: water",145 % of control
same,T/C,"[2]; dose: 80.0 mg/kg/injection, schedule: Q01DX001 (sc), vehicle: water",133 % of control
same,T/C,"[2]; dose: 108.0 mg/kg/injection, schedule: Q01DX Z (sc), vehicle: other",140 % of control
same,T/C,"[2]; dose: 108.0 mg/kg/injection, schedule: Q01DX Z (sc), vehicle: saline",140 and 142 % of control [8 of 10 alive]
same,T/C,"[2]; dose: 108.0 mg/kg/injection, schedule: Q01DX Z (sc), vehicle: water",130 and 145 % of control
same,T/C,"[2]; dose: 180.0 mg/kg/injection, schedule: Q01DX Z (sc), vehicle: water",125 % of control
same,T/C,"[2]; dose: 216.0 mg/kg/injection, schedule: Q01DX001 (sc), vehicle: water",125 % of control
